Reference: article PMC10022686

Sequences of proteins named here, by UniProt entry; tags and fusion partners are left off. A change or cut given only in a name is not applied to a line headed by its entry.
UniProt Q9HD67: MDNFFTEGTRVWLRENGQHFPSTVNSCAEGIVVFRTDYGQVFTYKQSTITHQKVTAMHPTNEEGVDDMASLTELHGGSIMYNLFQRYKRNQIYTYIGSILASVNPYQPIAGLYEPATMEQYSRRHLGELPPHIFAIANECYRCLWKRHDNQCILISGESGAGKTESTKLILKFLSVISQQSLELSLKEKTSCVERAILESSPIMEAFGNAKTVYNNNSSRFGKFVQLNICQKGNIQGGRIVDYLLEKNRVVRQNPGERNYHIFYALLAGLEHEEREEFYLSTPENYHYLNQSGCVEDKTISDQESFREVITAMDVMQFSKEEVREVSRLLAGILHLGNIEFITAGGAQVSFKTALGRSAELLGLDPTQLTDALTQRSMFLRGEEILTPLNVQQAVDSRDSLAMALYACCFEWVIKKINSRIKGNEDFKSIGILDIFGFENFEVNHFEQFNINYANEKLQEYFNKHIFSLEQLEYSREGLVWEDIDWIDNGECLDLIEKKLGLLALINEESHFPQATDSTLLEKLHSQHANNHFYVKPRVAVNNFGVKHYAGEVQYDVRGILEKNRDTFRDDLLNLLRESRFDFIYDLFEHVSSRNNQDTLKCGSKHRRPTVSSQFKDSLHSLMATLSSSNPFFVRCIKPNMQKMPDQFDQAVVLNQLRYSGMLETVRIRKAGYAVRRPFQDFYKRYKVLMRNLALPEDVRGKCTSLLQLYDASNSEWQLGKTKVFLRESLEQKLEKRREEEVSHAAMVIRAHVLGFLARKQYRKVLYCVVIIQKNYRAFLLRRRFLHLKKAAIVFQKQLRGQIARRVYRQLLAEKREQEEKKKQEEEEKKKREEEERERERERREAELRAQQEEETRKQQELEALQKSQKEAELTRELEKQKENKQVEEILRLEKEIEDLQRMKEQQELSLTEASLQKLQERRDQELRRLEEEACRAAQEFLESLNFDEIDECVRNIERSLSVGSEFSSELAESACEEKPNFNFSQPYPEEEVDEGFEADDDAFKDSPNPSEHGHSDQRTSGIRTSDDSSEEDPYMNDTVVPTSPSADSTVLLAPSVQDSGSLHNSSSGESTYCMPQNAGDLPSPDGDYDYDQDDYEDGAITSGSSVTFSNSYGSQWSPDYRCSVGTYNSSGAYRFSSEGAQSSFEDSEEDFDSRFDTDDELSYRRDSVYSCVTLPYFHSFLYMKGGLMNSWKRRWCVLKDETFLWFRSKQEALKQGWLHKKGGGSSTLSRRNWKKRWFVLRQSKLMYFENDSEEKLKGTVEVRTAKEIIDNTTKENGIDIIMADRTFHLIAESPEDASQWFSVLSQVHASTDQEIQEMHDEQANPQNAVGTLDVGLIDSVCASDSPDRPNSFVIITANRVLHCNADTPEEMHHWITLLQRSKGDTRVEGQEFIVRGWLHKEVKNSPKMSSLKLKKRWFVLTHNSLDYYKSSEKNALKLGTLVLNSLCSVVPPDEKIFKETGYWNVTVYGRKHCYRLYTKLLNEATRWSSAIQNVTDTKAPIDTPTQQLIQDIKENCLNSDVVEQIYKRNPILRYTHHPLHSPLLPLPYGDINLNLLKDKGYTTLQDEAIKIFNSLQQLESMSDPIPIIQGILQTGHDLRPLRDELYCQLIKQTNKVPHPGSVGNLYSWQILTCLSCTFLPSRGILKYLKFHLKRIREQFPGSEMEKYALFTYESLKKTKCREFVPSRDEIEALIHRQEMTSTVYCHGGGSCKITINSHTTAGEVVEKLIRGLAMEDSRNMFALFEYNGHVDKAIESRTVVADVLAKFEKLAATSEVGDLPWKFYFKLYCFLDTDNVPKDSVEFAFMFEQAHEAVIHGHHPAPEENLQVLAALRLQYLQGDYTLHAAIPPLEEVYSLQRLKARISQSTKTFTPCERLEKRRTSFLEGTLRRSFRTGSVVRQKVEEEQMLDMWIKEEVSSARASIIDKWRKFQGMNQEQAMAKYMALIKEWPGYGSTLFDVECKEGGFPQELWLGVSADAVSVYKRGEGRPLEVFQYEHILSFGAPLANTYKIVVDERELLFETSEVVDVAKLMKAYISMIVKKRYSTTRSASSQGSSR
UniProt Q70E73: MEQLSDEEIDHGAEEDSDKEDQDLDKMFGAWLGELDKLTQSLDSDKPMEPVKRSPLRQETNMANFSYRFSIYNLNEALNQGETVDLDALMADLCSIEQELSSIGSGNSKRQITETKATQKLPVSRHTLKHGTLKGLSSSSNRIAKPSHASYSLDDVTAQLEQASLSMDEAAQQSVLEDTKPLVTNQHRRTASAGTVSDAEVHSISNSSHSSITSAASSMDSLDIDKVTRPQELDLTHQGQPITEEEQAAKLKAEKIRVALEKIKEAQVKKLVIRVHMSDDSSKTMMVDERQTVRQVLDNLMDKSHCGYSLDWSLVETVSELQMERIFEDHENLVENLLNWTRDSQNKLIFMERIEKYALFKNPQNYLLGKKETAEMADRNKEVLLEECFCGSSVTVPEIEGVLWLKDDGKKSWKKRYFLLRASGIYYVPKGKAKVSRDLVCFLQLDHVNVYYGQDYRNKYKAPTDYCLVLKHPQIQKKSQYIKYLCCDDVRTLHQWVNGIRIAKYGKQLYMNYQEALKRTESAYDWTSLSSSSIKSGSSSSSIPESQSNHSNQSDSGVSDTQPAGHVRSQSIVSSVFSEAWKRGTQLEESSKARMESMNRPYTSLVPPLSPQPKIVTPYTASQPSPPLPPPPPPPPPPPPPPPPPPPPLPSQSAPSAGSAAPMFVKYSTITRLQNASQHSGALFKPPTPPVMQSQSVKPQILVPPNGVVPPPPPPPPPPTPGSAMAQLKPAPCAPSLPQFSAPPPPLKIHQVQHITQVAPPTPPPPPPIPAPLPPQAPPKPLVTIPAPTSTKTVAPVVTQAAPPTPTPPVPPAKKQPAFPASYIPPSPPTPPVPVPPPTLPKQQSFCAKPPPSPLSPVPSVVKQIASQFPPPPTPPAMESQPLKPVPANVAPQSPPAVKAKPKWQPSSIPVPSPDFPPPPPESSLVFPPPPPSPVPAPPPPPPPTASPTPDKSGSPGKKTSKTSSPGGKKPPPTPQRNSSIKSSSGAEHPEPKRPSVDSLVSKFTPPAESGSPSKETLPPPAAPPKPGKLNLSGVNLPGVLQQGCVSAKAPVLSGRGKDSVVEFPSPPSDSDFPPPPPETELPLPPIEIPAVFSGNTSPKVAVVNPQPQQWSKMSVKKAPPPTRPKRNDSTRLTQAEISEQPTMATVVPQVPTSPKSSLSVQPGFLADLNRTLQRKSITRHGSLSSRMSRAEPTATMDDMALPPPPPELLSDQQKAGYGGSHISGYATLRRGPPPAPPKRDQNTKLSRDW

Target: GFP–MYO10^FERM (MyTH4/FERM domain of myosin-X) (UniProt Q9HD67)
Test: co-IP; GFP pulldown in U2-OS cells expressing GFP–MYO10^FERM, GFP–Talin^FERM or GFP alone; endogenous RAPH1 detected by western blotting

binding: binds
Substance: lamellipodin (RAPH1), endogenous in U2-OS cells (from UniProt Q70E73 1-1250)

These are yes or no findings as the source states them, for the method shown. Binding seen in cells or lysates may run through a third protein. Binding can be weak; no strength is given.
